According to PubChem BioAssay AID485314 (National Center for Advancing Translational Sciences (NCATS), 2010):
Screen size: about 340,000 compounds; about 4,500 (1.3%) were called active. The shares of active, inactive and inconclusive entries below differ from those in the screen. The call rests on the fitted dose curve; in most records, active means well fitted inhibition curve with a large enough effect; inconclusive means small, poorly fitted or top-dose-only effect, or another doubt; inactive means no such curve, though single readings can be large or run the other way. Potencies of inconclusive entries are doubtful fits and often do not repeat.

Target: DNA polymerase beta (Homo sapiens) (UniProt P06746)
Test: qHTS Assay for Inhibitors of DNA Polymerase Beta
Conditions: Pol beta primer extension/strand displacement, fluorescence kinetic; activity change, negative = inhibition: at 114 µM (top of the series)
Outline: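 Curves were derived by four-parameter Hill fits of normalized qHTS data. The kinetic fluorescent primer-extension read was taken at 0 and 10 min after 50 nM substrate, following a 15 min room-temperature preincubation of 10 nM enzyme with compounds.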
On the % scale 0 is the no-effect control and ±100 the full control effect; potency means the concentration at half of the fitted maximal effect.

Row | Structure (SMILES) | Potency | activity change, negative = inhibition
1 | COc1cc(C(=O)N/N=C/c2cccc(Oc3ccccc3)c2)ccc1O | inconclusive: 4.47 µM [inhibitor, full curve, poor fit] | 
2 | Cc1ccc(-c2noc(-c3ccc(NCC4CCCO4)c([N+](=O)[O-])c3)n2)cc1 (stereo not drawn) | inconclusive: 39.8 µM [inhibitor, partial curve] | 
3 | O=C(Nc1cccc(C(=O)O)c1)/C(=C\c1ccco1)NC(=O)c1ccc(Br)o1 | inconclusive: 35.5 µM [inhibitor, partial curve, poor fit] | 
4 | O=C1NC(=S)S/C1=C\c1cc2ccccc2nc1N1CCCCC1 | inconclusive: 25.1 µM [inhibitor, single point] | 
5 | N#CC1=C(N)OC2=C(CCC/C2=C/c2ccoc2)C1c1ccoc1 (stereo not drawn) | active: 14.1 µM | 
6 | O=C(CSc1ccc(-c2ccco2)nn1)NCc1ccc(Cl)cc1 | inconclusive: 28.2 µM [inhibitor, full curve] | 
7 | Cc1ccc(-c2nnc(Nc3ccc(Cl)cc3)c3ccccc23)cc1S(=O)(=O)NCC1CCCO1 (stereo not drawn) | inconclusive: 0.0891 µM [inhibitor, partial curve] | 
8 | CC(C)(C)c1ccc(C(=O)c2c[nH]c(C(=O)NCc3cccs3)c2)cc1 | inconclusive: 20 µM [inhibitor, single point] | 
9 | O=C(O)COc1ccccc1/C=N/NC(=O)CSc1nc2ccccc2n1Cc1ccccc1Cl | active: 79.4 µM | 
10 | CCOC(=O)C1(Cc2cccc(OC)c2)CCCN(C(=O)CCc2cccnc2)C1 (stereo not drawn) | inconclusive: 79.4 µM [inhibitor, single point] | 
11 | COC(=O)CCCC1=CC2=CC(=O)C(C)(OC(=O)c3cccs3)C(=O)C2=CN1Cc1ccco1 (stereo not drawn) | active: 50.1 µM | 
12 | CCc1cc(C(=O)c2ccc(OC)cc2)c(NC(=O)CN2CCN(C)CC2)s1 | inconclusive: 50.1 µM [inhibitor, single point] | 
13 | COc1cc(OC)c(NC(=O)N2CCOc3ccc(C)cc32)cc1Cl |  | inactive: -19.5%
14 | Cc1nn(-c2ccccc2)c2nc(N)c(C#N)c(-c3ccc(O)c(O)c3)c12 | inconclusive: 1 µM [inhibitor, full curve] | 
15 | COc1ccc(CNC(=O)c2oc3c(c2C)-c2nn(Cc4ccccc4Cl)cc2CC3)cc1 | inconclusive: 31.6 µM [inhibitor, full curve] | 
16 | CCOC(=O)CC1COCCN1Cc1cn[nH]c1-c1ccc2c(c1)OCO2 (stereo not drawn) | inconclusive: 2.82 µM [inhibitor, single point] | 
17 | Cc1ccc(C(=O)O)cc1-c1ccc(/C=C2\SC(=O)N(CC(=O)Nc3ccccc3)C2=O)o1 | inconclusive: 8.91 µM [inhibitor, partial curve, poor fit] | 
18 | CSc1ccccc1NC(=O)C1=CC(c2ccc3c(c2)OCO3)=NS(=O)(=O)N1C |  | inactive: 16.2%
19 | COc1ccc(/C(O)=C2/C(=O)C(=O)N(Cc3ccco3)C2c2cccs2)cc1 (stereo not drawn) | inconclusive: 7.94 µM [inhibitor, full curve, poor fit] | 
20 | CCN(CC)CCOC(=O)c1ccc(NC(=O)c2nn(-c3ccc(C)cc3)c(=O)c3c2c2ccccc2n3C)cc1 | active: 7.94 µM | 
21 | Cc1ccc(C(O)P(=O)(OCc2ccccc2)c2ccc(N(C)C)cc2)cc1 (stereo not drawn) | inconclusive: 79.4 µM [inhibitor, single point] | 
22 | COc1ccc(CCNC(=O)CN2CCN(c3ccccc3Cl)CC2)cc1 | inconclusive: 89.1 µM [inhibitor, single point] | 
23 | CCOC(=O)N1CCc2c(sc3c2c(=O)n(Cc2ccccc2)c(=O)n3Cc2cccc(Cl)c2)C1 |  | inactive: 7.05%

Row | Structure (SMILES) | Potency | activity change, negative = inhibition
24 | COc1cc(NC(=O)C2=C(C)Nc3nnnn3C2c2ccc(SC)cc2)c(OC)cc1Cl (stereo not drawn) |  | inactive: -26.5%
25 | Cc1cc(C)n2nc3nc(N4CCCCC4)nc(-c4ccco4)c3c2n1 | active: 10 µM | 
26 | CCOc1ccccc1NC(=O)C1CCN(S(=O)(=O)c2ccc(Br)cc2)CC1 | inconclusive: 89.1 µM [inhibitor, single point] | 
27 | CN(C)c1ccc(/C=N/Nc2nncc3ccccc23)cc1 | inconclusive: 79.4 µM [inhibitor, single point] | 
28 | Cc1nn(CCCC(=O)NCc2ccccc2)c(=O)c2c1sc1ccccc12 | active: 79.4 µM | 
29 | O=C(Nc1nnc(C2=COCCO2)o1)c1ccc(F)cc1 |  | inactive: 5.46%
30 | Cc1ccc(-c2[nH]c(=O)n3ccncc23)s1 | inconclusive: 100 µM [inhibitor, single point] | 
31 | CN(Cc1ccco1)C(=O)c1c[nH]c2ccc(S(=O)(=O)Nc3ccc4c(c3)OCCO4)cc2c1=O | inconclusive: 39.8 µM [inhibitor, single point] | 
32 | CCOc1ccc(N2CC(c3nc4ccccc4n3CCCOc3ccc(OC)cc3)CC2=O)cc1 (stereo not drawn) |  | inactive: 15.6%
33 | CCOc1cc(/C=N/Nc2ncnc(Cl)c2N)ccc1O | inconclusive: 12.6 µM [inhibitor, full curve] | 
34 | O=C(CSc1ccc(Cl)cc1)c1ccco1 | active: 7.94 µM | 
35 | O=C(Nc1cc2c(cc1Br)OCCO2)c1ccco1 | inconclusive: 89.1 µM [inhibitor, single point] | 
36 | N#Cc1cccc2c1-c1ccccc1/C2=N/NC(N)=O |  | inconclusive: -47.4% [inhibitor]
37 | C[C@@H]1CCC[C@H](C)N1Cc1nc(Cc2ccccc2Cl)no1 | inconclusive: 89.1 µM [inhibitor, single point] | 
38 | Cn1c(SCC(=O)Nc2ccc3c(c2)oc2ccccc23)nnc1-c1ccccc1 | active: 2.24 µM | 
39 | COc1cccc(/C=N/NC(=O)COc2cccc3cccnc23)c1O | inconclusive: 15.8 µM [inhibitor, full curve] | 
40 | C=CCc1cccc2cc(C(=O)NCc3ccc(C(=O)OCC)o3)c(=O)oc12 | inconclusive: 8.91 µM [inhibitor, full curve, poor fit] | 
41 | O=C(O)c1ccc(NS(=O)(=O)c2cccc(C(=O)Nc3ccccc3[N+](=O)[O-])c2)cc1 | inconclusive: 2.51 µM [inhibitor, single point] | 
42 | COc1ccc(CNC(=O)Cc2c(C)c3c(cc(C)c4c(C)coc43)oc2=O)cc1 |  | inactive: 13.4%
43 | COc1cc(C(=O)N/N=C/c2sc(N3CCOCC3)nc2-c2ccccc2)cc(OC)c1OC | inconclusive: 89.1 µM [inhibitor, single point] | 
44 | NC(=O)c1c(NC(=O)c2ccncc2)sc2c1CCCCCC2 | inconclusive: 56.2 µM [inhibitor, partial curve, poor fit] | 
45 | CCC1=NN2C(=N)/C(=C\c3cccn3-c3ccc(C)c(C)c3)C(=O)N=C2S1 | inconclusive: 22.4 µM [inhibitor, full curve] | 
46 | COc1ccccc1NC(=S)N1CC(C)OC(C)C1 (stereo not drawn) | inconclusive: 89.1 µM [inhibitor, single point] | 

Of the compounds above, 2 have two or more sulfur atoms:
Row | Structure (SMILES) | Potency | activity change, negative = inhibition
4 | O=C1NC(=S)S/C1=C\c1cc2ccccc2nc1N1CCCCC1 | inconclusive: 25.1 µM [inhibitor, single point] | 
18 | CSc1ccccc1NC(=O)C1=CC(c2ccc3c(c2)OCO3)=NS(=O)(=O)N1C |  | inactive: 16.2%

(further entries)

Row | Structure (SMILES) | Potency | activity change, negative = inhibition
47 | CCOc1ccc(C(NC(=O)/C=C/c2ccco2)c2ccc(OC)c(OC)c2)cc1 (stereo not drawn) | inconclusive: 39.8 µM [inhibitor, partial curve, poor fit] | 
48 | Cc1ccccc1C(=O)NNc1ncnc2c1cnn2C |  | inactive: 12.6%
49 | CCC(C)n1c(=N)c(S(=O)(=O)c2ccc(C)cc2)cc2c(=O)n3cc(C)ccc3nc21 (stereo not drawn) |  | inactive: 11.9%
50 | Cc1ccccc1NC(=O)NC(N)=O | inconclusive: 7.94 µM [inhibitor, full curve, poor fit] | 
51 | Cc1ccc2nc(/C(C#N)=C/c3ccc(-c4cccc(Cl)c4)o3)[nH]c2c1 |  | inconclusive: -84.1% [inhibitor]
52 | CCOC(=O)Cc1[nH]nc2c1C(C1C=CCCC1)C(C#N)=C(N)O2 (stereo not drawn) | inconclusive: 15.8 µM [inhibitor, partial curve] | 
53 | Cc1cc(N2CCOCC2)ccc1/C=C1\NC(=O)N(Cc2ccccc2F)C1=O | inconclusive: 89.1 µM [inhibitor, single point] | 
54 | Cn1cc(CN2CCN(Cc3cccnc3)CC2)c(-c2ccc3c(c2)OCCO3)n1 | inconclusive: 0.141 µM [inhibitor, full curve, poor fit] | 
55 | Cc1cc(C)c2c(c1)N[C@H](c1cccs1)[C@@H]1CCO[C@H]21 |  | inactive: 21.9%
56 | CC(=O)Nc1ccc(OCc2nnc(-c3ccc(Cl)cc3)o2)cc1 | inconclusive: 63.1 µM [inhibitor, single point] | 
57 | N#CCSc1nnc(SCC#N)s1 |  | inconclusive: -38.5% [inhibitor]
58 | Cc1cc(NC(=O)CN(C)S(=O)(=O)c2ccc3c(c2)CCC(=O)N3)ccc1Br |  | inactive: -1.2%
59 | CCOc1ccc(CCNC(=O)c2cc3c(-c4cccc(OC)c4)nn(C)c3s2)cc1OCC |  | inactive: 4.47%
60 | Cc1nn2c(-c3cccc(NC(=O)CSc4nc5ccccc5o4)c3)nnc2c2ccccc12 | inconclusive: 10 µM [inhibitor, partial curve] | 
61 | CN(c1ccc(Cl)cc1)c1cc(=O)n(C)c2ccccc12 |  | inactive: -28.9%
62 | Cc1ccc2occ(/C=N/NC(=O)c3ccccc3C)c(=O)c2c1 | inconclusive: 39.8 µM [inhibitor, partial curve] | 
63 | CCC(=O)Nc1ccc2c(c1)N(C(C)=O)c1ccccc1CC2 | inconclusive: 12.6 µM [inhibitor, partial curve, poor fit] | 
64 | CN1CCN(C(=S)NC(=O)c2ccc(Cl)cc2)CC1 | inconclusive: 50.1 µM [inhibitor, partial curve] | 
65 | CCCCC(=O)NC(=S)Nc1cccc(C(=O)O)c1 |  | inactive: 5.7%
66 | CC1=C(C(=O)O)N2C(=O)C(NC(=O)c3ccn(C)n3)C2SC1 (stereo not drawn) | inconclusive: 5.62 µM [inhibitor, full curve, poor fit] | 
67 | CC(C)Cc1nn2c(=O)cc(COC(=O)c3ccccc3NC(=O)c3ccccc3)nc2s1 |  | inactive: 6.42%
68 | Cc1cc(C(=O)C(=O)NC(C)C)c(C)n1-c1ccc([N+](=O)[O-])cc1 | inconclusive: 1.78 µM [inhibitor, full curve, poor fit] | 
